# These are yes or no findings as the source states them, for the method shown. In cells and extracts the contact can be indirect. Binding can be weak; no strength is given.
# The chains behind the UniProt entries cited, without tags or fusion partners. Where a name states a change or a piece, a line headed by the entry shows the natural chain unless it says otherwise.
# UniProt Q9Y266: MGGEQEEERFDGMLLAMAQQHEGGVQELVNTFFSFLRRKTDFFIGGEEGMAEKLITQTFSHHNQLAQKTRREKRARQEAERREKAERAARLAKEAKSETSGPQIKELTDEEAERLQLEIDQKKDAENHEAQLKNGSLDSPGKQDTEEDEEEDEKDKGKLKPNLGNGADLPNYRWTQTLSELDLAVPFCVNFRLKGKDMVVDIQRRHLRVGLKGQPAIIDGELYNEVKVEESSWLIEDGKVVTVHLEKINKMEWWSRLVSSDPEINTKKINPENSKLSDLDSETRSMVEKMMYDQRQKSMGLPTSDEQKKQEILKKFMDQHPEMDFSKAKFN
# UniProt O15379: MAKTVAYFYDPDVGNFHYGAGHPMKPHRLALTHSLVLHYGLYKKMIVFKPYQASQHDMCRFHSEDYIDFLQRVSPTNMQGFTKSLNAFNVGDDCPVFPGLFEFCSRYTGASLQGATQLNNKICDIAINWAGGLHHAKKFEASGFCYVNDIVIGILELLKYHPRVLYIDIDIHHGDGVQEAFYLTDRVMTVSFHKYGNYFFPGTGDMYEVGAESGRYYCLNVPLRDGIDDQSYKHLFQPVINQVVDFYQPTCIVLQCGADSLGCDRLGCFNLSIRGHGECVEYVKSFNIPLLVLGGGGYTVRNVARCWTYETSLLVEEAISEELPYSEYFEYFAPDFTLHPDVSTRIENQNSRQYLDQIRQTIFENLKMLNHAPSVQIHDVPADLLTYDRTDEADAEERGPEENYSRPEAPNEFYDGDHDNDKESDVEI
# UniProt P53350: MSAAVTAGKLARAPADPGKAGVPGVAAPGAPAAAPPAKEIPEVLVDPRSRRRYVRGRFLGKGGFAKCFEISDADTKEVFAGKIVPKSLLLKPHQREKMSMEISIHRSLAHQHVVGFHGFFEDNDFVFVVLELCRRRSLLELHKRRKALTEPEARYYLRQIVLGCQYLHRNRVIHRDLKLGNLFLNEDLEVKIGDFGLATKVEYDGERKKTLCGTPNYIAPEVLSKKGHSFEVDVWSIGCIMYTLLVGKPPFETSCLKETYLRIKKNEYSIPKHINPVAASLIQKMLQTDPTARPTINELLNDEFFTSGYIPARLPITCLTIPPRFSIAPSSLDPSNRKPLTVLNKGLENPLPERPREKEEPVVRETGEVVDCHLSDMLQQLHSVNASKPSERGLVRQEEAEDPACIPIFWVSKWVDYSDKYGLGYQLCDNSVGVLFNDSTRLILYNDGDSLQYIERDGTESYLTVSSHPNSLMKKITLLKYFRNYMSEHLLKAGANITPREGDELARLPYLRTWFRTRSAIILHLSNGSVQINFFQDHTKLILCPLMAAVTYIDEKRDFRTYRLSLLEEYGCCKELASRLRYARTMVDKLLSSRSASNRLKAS
# What was measured:
# [1] = biological target: EGFP-NudC K39R (human) (UniProt Q9Y266); assay: co-IP; HeLa cells transfected with EGFP-NudC WT, K39R or K39Q for 24 h, enriched in mitosis (thymidine and nocodazole block and release); lysates (2 mg) immunoprecipitated with GFP antibody, blotted for HDAC3, Plk1 and GFP; IgG as antibody control
# [2] = biological target: EGFP-NudC K39Q (human) (UniProt Q9Y266); assay: as above
Substance,binding [1],binding [2]
histone deacetylase HDAC3 (from UniProt O15379 1-428) (enzyme),binds,binds
polo-like kinase 1 (Plk1) (from UniProt P53350 1-603) (enzyme),binds,binds

# Reference: article PMC3777959
